{"source": "patent US12138320B2", "about": "“Composition and methods for tumor imaging and treatment” (The University of Chicago, priority 2020, dated 2024)", "key": {"NCEH1 [1]": {"target": "T1, NCEH1 (Homo sapiens, UniProt Q6PIU2)", "T1 construct": "serine hydrolase activity in membrane proteome fractions of MDA-MB231 breast cancer cells treated with the indicated concentrations; endogenous in cells; host or cells: PC3 prostate cancer cells; MDA-MB231 breast cancer cells", "T1 sequence (Q6PIU2 1-408)": "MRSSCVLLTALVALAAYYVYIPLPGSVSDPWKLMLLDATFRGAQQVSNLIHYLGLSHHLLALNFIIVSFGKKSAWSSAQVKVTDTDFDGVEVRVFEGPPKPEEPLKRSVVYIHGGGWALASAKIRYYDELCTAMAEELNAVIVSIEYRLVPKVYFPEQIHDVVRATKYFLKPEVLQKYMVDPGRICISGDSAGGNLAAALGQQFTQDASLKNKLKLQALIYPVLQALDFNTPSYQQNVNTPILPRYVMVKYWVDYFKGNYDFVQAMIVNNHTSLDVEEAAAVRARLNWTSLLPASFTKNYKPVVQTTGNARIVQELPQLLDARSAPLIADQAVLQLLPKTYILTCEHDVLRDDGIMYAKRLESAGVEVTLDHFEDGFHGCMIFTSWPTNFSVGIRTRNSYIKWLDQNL", "test": "Gel-based competitive ABPP (FP-Rho) of cell lysates/proteomes treated in vitro", "type": "biochemical"}, "NCEH1 [2]": {"target": "T1, NCEH1", "test": "Time-dependent inhibition (kinetic profiling) of NCEH1 in live PC3 cells", "type": "cell-based", "conditions": "JW199 1 μM"}, "[3]": {"test_system": "other detected serine hydrolase targets", "test": "Family-wide gel-based profiling of serine hydrolases in MDA-MB231 and PC3 cells (selectivity)", "type": "cell-based, human", "procedure": "Proteome Preparation: Human PC3 and MDA-MB231 cells were grown in Roswell Park Memorial Institute (RPMI) medium and Dulbecco's Modified Eagle Medium (DMEM), respectively, supplemented with 10% fetal bovine serum (FBS) and 2 mM L-glutamine, and cultured in a humidified 5% CO2 incubator at 37° C. Cells were washed twice with phosphate buffered saline (PBS, pH 7.5), collected by scraping, resuspended in 0.2 ml PBS, sonicated, and fractionated via centrifugation (100,000×g, 45 min) into a pellet (containing membrane proteins) and supernatant (containing soluble proteins). […] Protein concentrations were determined using a Bradford protein assay kit (Bio-Rad, Hercules, California, United States of America)). […]\nGel-based Activity Profiling: Cell lysates were treated with 1 μM fluorophosphonate-rhodamine (FP-rho) for 30 min at room temperature (50 μL total reaction volume). Reactions were quenched with one volume of standard 4× sodium dodecyl sulfate/polyacrylamide gel electrophoresis (SDS/PAGE) reducing sample buffer, resolved on 10% acrylamide SDS/PAGE gels, and visualized in-gel with a fluorescence scanner sold under the tradename CHEMIDOC™ MP (Bio-Rad, Hercules, California, United States of America). Densitometric quantification of band intensities were used to calculate the percent inhibition via JW199. […]"}}, "note": "For at least one compound, name, drawing or mass did not settle the structure."}
{"smiles": "CC(C)c1ccccc1OC(=O)NCCc1ccc(OCCF)cc1", "note": "[JW199, 2-isopropylphenyl-(4-(2-fluoroethoxy)phenethyl)carbamate]", "values": [{"measurement": "potency in in vitro lysate profiling compared to live cells", "setting": "NCEH1 [1]", "result": "less potent"}, {"measurement": "time to saturation of NCEH1 labeling", "setting": "NCEH1 [2]", "result": "≤ 20", "unit": "min"}, {"measurement": "t½ of NCEH1 labeling", "setting": "NCEH1 [2]; single-phase exponential decay fit", "result": 10.37, "unit": "min"}, {"measurement": "inhibition of serine hydrolases detected in the soluble proteome fraction", "setting": "[3]; MDA-MB231 soluble proteome, 0 to 25 or 50 μM, in vitro and in situ", "result": "does not inhibit the activity of all detected serine hydrolases"}, {"measurement": "selectivity in in vitro lysate profiling compared to live cells", "setting": "[3]; in vitro lysate", "result": "comparably selective"}]}
